Reference: PMC11387133
No constants are given. Whether binding was seen depends on the method and setting. For part of these data: In cells and extracts the contact can be indirect. Some results given as binding are weak or reduced against the parent protein; the word gives no strength.

By UniProt entry, the sequences of proteins in these tests, tags left out.
UniProt A0ABX6ES48: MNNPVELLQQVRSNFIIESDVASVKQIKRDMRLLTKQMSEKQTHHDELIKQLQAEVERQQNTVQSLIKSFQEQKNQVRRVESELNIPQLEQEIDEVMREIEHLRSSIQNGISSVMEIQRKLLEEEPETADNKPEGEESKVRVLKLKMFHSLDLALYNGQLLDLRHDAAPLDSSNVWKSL
UniProt A0ABX6F2N8: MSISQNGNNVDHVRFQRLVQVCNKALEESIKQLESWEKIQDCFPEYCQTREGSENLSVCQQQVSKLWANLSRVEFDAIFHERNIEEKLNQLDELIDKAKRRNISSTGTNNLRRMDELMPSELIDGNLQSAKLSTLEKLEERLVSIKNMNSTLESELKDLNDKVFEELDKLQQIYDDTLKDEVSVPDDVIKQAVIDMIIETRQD

Experiments:
[1] = target: Dsn1-6His-3M3DK (K. marxianus) (K. marxianus); assay: co-IP; Dsn1-His-M3DK captured from lysate of benomyl-treated K. marxianus on α-M3DK Dynabeads (Buffer H, 150 mM KCl, 4 °C), eluted with 3xM3DK peptide; immunoblot of the eluate
[2] = target: Dsn1-6His-3M3DK (K. marxianus) (K. marxianus); assay: immunogold labelling of affinity-purified particles (negative stain EM); kinetochores purified via Dsn1-His-M3DK from strain SBY21752 (Ndc80-V5) or SBY18150 (no V5), incubated with α-V5 antibody on 10 nm gold, 30 min, room temperature

| Substance | binding [1] | binding [2] |
| --- | --- | --- |
| Spc24 (K. marxianus) (from UniProt A0ABX6ES48 1-179) | binds | – |
| Nnf1 (K. marxianus) (from UniProt A0ABX6F2N8 1-203) | binds | – |
| Ndc80-6xHis-3xV5 (K. marxianus) (from UniProt A0ABX6F1V2 1-676) | – | binds |
